Measurements reported in PubChem BioAssay (NCATS).
The shares of active, inactive and inconclusive entries below differ from those in the screen. Where the call is inconclusive, the potency comes from a doubtful curve fit. Calls of active or inactive are those of the source. The call rests on the fitted dose curve; in most records, active means well fitted curve in the direction sought with a large enough effect; inconclusive means small, poorly fitted or top-dose-only effect, or another doubt; inactive means no such curve, though single readings can be large; an effect the other way counts as inactive or inconclusive.

Tests used:
[1] = Quantitative High-Throughput drug screen in 47 multiple myeloma cell lines against the NCATS MIPE library collection: KMS20_JCRB cell viability assay (AID 1918973); settings: CellTiter-Glo ATP, 48 h; viability (% of DMSO): at 45.8 µM (top of the series); further: nearly all actives have a fitted effect of over 45% in size;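 on viability (% of DMSO): 100% = DMSO only wells and 0% = media only wells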
Summary of the method: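 Primary qHTS used for cherry-picking: cells at 500/well, library compounds for 48 h (37C, 5% CO2), luminescent ATP assay.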

[2] = Quantitative High-Throughput drug screen in 47 multiple myeloma cell lines against the NCATS MIPE library collection: KMS26_JCRB cell viability assay (AID 1918975); settings: KMS26 myeloma cells viability, CellTiter-Glo ATP, 48 h; viability (% of DMSO): at 45.8 µM (top of the series); further: nearly all actives have a fitted effect of over 45% in size;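 on viability (% of DMSO): 100% = DMSO-treated wells and 0% = wells with media only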
Summary of the method: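 Approved and investigational drugs from MIPE 4.0 were added by pin tool to 500 cells per well. After 48 hours at 37C, ATP-based CellTiter-Glo luminescence indicated remaining viability.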

[3] = Quantitative High-Throughput drug screen in 47 multiple myeloma cell lines against the NCATS MIPE library collection: MMM1_PLB cell viability assay (AID 1918976); further: nearly all actives have a fitted effect of over 35% in size
Summary of the method: (§1)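 Inhibition of viability over 48 h was scored by ATP content (CellTiter-Glo) in 500-cell wells. Zero and full viability were defined by media-only and DMSO-only wells.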

[4] = Quantitative High-Throughput drug screen in 47 multiple myeloma cell lines against the NCATS MIPE library collection: MOLP8_DSMZ cell viability assay (AID 1918977); settings: MOLP8 myeloma viability, CellTiter-Glo ATP luminescence, 48 h; viability (% of control): at 45.8 µM (top of the series); further: nearly all actives have a fitted effect of over 45% in size;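 on viability (% of control): 100% = DMSO-only wells and 0% = media-only wells without cells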
Summary of the method: as §1

[5] = Quantitative High-Throughput drug screen in 47 multiple myeloma cell lines against the NCATS MIPE library collection: OCIMY1_PLB cell viability assay (AID 1918979); settings: OCI-MY1 myeloma viability, CellTiter-Glo ATP, 48 h; viability: at 45.8 µM (top of the series) unless noted; further: nearly all actives have a fitted effect of over 35% in size;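 on viability: 100% = DMSO-only wells and 0% = cell-free media-only wells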
Summary of the method: as §1

[6] = Quantitative High-Throughput drug screen in 47 multiple myeloma cell lines against the NCATS MIPE library collection: MM1R_ATCC cell viability assay (AID 1918981); further: nearly all actives have a fitted effect of over 35% in size
Summary of the method: as §1

[7] = Quantitative High-Throughput drug screen in 47 multiple myeloma cell lines against the NCATS MIPE library collection: L363_DSMZ cell viability assay (AID 1918984); settings: L363 myeloma viability, CellTiter-Glo ATP luminescence, 48 h; viability (% of control): at 45.8 µM (top of the series); further: nearly all actives have a fitted effect of over 40% in size
Summary of the method: as §1

[8] = Quantitative High-Throughput drug screen in 47 multiple myeloma cell lines against the NCATS MIPE library collection: KMS34_JCRB cell viability assay (AID 1918985); settings: KMS34 myeloma viability, CellTiter-Glo ATP luminescence, 48 h; viability, percent of control: at 45.8 µM (top of the series); further: nearly all actives have a fitted effect of over 40% in size;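 on viability, percent of control: 100% = DMSO-only wells and 0% = media-only wells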
Summary of the method: as §1

[9] = Quantitative High-Throughput drug screen in 47 multiple myeloma cell lines against the NCATS MIPE library collection: OCIMY7_PLB cell viability assay (AID 1918987); settings: OCI-MY7 myeloma viability, CellTiter-Glo ATP, 48 h; viability (% of DMSO): at 45.8 µM (top of the series); further: nearly all actives have a fitted effect of over 65% in size
Summary of the method: as §1

[10] = Quantitative High-Throughput drug screen in 47 multiple myeloma cell lines against the NCATS MIPE library collection: OCIMY5_PLB cell viability assay (AID 1918988); settings: OCI-MY5 myeloma viability, ATP luminescence, 48 h; viability, % of control: at 45.8 µM (top of the series); further: nearly all actives have a fitted effect of over 65% in size;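 on viability, % of control: 100% = DMSO-treated wells and 0% = wells with media alone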
Summary of the method: as §1

[11] = Quantitative High-Throughput drug screen in 47 multiple myeloma cell lines against the NCATS MIPE library collection: XG1_PLB cell viability assay (AID 1919866); settings: CellTiter-Glo ATP, 48 h; viability: at 45.8 µM (top of the series); further: nearly all actives have a fitted effect of over 35% in size
Summary of the method: as §1

[12] = Quantitative High-Throughput drug screen in 47 multiple myeloma cell lines against the NCATS MIPE library collection: MM1S_ATCC cell viability assay (AID 1918980); further: nearly all actives have a fitted effect of over 45% in size;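 on viability (% of control): 100% = wells with DMSO only and 0% = wells with media only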
Summary of the method: as §1

[13] = Quantitative High-Throughput drug screen in 47 multiple myeloma cell lines against the NCATS MIPE library collection: LP1_DSMZ cell viability assay (AID 1918982); settings: LP1 myeloma viability, CellTiter-Glo ATP luminescence, 48 h; viability (% of control): at 45.8 µM (top of the series); further: nearly all actives have a fitted effect of over 35% in size
Summary of the method: as §1

[14] = Quantitative High-Throughput drug screen in 47 multiple myeloma cell lines against the NCATS MIPE library collection: SKMM1_PLB cell viability assay (AID 1919863); settings: SKMM1 myeloma viability, CellTiter-Glo ATP, 48 h; viability: hits give low values; further: nearly all actives have a fitted effect of over 35% in size
Summary of the method: as §1

[15] = Quantitative High-Throughput drug screen in 47 multiple myeloma cell lines against the NCATS MIPE library collection: U266_ATCC cell viability assay (AID 1919864); settings: U266 myeloma viability, CellTiter-Glo ATP luminescence, 48 h; viability (% of DMSO control): at 45.8 µM (top of the series); further: nearly all actives have a fitted effect of over 35% in size;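 on viability (% of DMSO control): 0% = media-only wells without cells and 100% = DMSO-only wells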
Summary of the method: as §1

[16] = Quantitative High-Throughput drug screen in 47 multiple myeloma cell lines against the NCATS MIPE library collection: XG6_PLB cell viability assay (AID 1919865); settings: XG6 myeloma viability, CellTiter-Glo ATP luminescence, 48 h; viability (% of control): at 45.8 µM (top of the series); further: nearly all actives have a fitted effect of over 40% in size;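 on viability (% of control): 100% = DMSO-only wells and 0% = media-only wells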
Summary of the method: as §1

[17] = Quantitative High-Throughput drug screen in 47 multiple myeloma cell lines against the NCATS MIPE library collection: NCIH929_DSMZ cell viability assay (AID 1918978); further: nearly all actives have a fitted effect of over 35% in size
Summary of the method: as §1

[18] = Quantitative High-Throughput drug screen in 47 multiple myeloma cell lines against the NCATS MIPE library collection: KMS28PE_JCRB cell viability assay (AID 1918983); further: nearly all actives have a fitted effect of over 35% in size
Summary of the method: as §1

[19] = Quantitative High-Throughput drug screen in 47 multiple myeloma cell lines against the NCATS MIPE library collection: OPM1_PLB cell viability assay (AID 1918989); further: nearly all actives have a fitted effect of over 40% in size
Summary of the method: as §1
Potency means the concentration at half of the fitted maximal effect.

CNc1nccc(-c2cccnc2Oc2cc(C(=O)Nc3cccc(C(F)(F)F)c3)ccc2C)n1
Potency [1]: active: 9.35 µM | Potency [2]: inconclusive: 37.2 µM [cytotoxic, single point] | Potency [3]: active: 18.7 µM | Potency [4]: inconclusive: 18.7 µM [cytotoxic, partial curve, poor fit] | Potency [5]: inconclusive: 14.8 µM [cytotoxic, partial curve] | Potency [6]: active: 20.9 µM | Potency [7]: active: 14.8 µM | Potency [8]: active: 14.8 µM | Potency [9]: active: 1.66 µM | Potency [10]: inconclusive: 18.7 µM [cytotoxic, partial curve, poor fit] | Potency [11]: active: 2.35 µM

CCCCC(F)(F)[C@@]1(O)CC[C@H]2[C@H](CC(=O)[C@@H]2CCCCCCC(=O)O)O1
Potency [1]: active: 0.418 µM | Potency [2]: inactive | Potency [3]: inconclusive: 5.9 µM [cytotoxic, partial curve, poor fit] | Potency [4]: inconclusive: 14.8 µM [cytotoxic, partial curve, poor fit] | Potency [5]: inactive | Potency [12]: inconclusive: 26.4 µM [cytotoxic, single point] | Potency [6]: inactive | Potency [13]: inactive | Potency [7]: inactive | Potency [8]: inconclusive: 1.18 µM [cytotoxic, full curve] | Potency [9]: inconclusive: 13.2 µM [cytotoxic, partial curve, poor fit] | viability [14]: inactive: 97.7% | Potency [15]: inactive | Potency [16]: inconclusive: 0.0132 µM [rising, full curve, poor fit]

CCOCC(O)COc1ccc(NC(=O)CC[S+](C)C)cc1 (stereo not given)
Potency [1]: inactive | Potency [2]: inconclusive: 0.0833 µM [rising, full curve, poor fit] | Potency [3]: inconclusive: 0.003 µM [rising, full curve, poor fit] | Potency [4]: inactive | Potency [5]: inconclusive: 0.0015 µM [rising, full curve, poor fit] | Potency [12]: inconclusive: 0.0332 µM [rising, full curve, poor fit] | Potency [7]: inactive | Potency [8]: inactive | Potency [9]: inconclusive: 37.2 µM [cytotoxic, single point] | Potency [10]: inactive | viability [14]: inactive: 111% | Potency [15]: inconclusive: 0.0083 µM [rising, full curve, poor fit] | Potency [16]: inactive | Potency [11]: inactive

C[C@@H](N)c1ccc(C(=O)Nc2ccnc3[nH]ccc23)cc1
Potency [1]: active: 18.7 µM | Potency [2]: inconclusive: 26.4 µM [cytotoxic, single point] | Potency [3]: inconclusive: 0.148 µM [rising, full curve] | Potency [4]: active: 16.6 µM | Potency [17]: inconclusive: 33.2 µM [cytotoxic, single point] | Potency [5]: inconclusive: 0.0012 µM [cytotoxic, full curve, poor fit] | Potency [6]: inconclusive: 29.6 µM [cytotoxic, single point] | Potency [13]: inconclusive: 33.2 µM [cytotoxic, single point] | Potency [18]: inconclusive: 33.2 µM [cytotoxic, single point] | Potency [7]: active: 20.9 µM | Potency [10]: active: 23.5 µM | Potency [19]: inconclusive: 37.2 µM [cytotoxic, single point] | Potency [14]: inconclusive: 37.2 µM [cytotoxic, single point] | Potency [15]: active: 16.6 µM | Potency [16]: active: 20.9 µM

C[C@H]1COc2c(N3CCN(C)CC3)c(F)cc3c(=O)c(C(=O)O)cn1c23
Potency [1]: inactive | Potency [2]: inactive | Potency [3]: inconclusive: 0.0372 µM [rising, full curve, poor fit] | Potency [4]: inconclusive: 20.9 µM [rising, partial curve, poor fit] | Potency [17]: inactive | Potency [12]: inactive | Potency [7]: inactive | Potency [8]: inactive | Potency [9]: inactive | Potency [10]: inactive | Potency [14]: inconclusive: 0.0033 µM [rising, full curve, poor fit] | Potency [16]: inactive | Potency [11]: inactive

C[C@H](O)[C@@H]1C(=O)N2C(C(=O)O)=C(S[C@@H]3CN[C@H](CNS(N)(=O)=O)C3)[C@@H](C)[C@@H]12
Potency [1]: inactive | Potency [2]: inactive | Potency [3]: inconclusive: 13.2 µM [cytotoxic, partial curve, poor fit] | Potency [4]: inconclusive: 3.32 µM [cytotoxic, full curve, poor fit] | Potency [12]: inconclusive: 18.7 µM [cytotoxic, partial curve, poor fit] | Potency [7]: inconclusive: 0.001 µM [cytotoxic] | Potency [8]: inactive | Potency [9]: inconclusive: 0.935 µM [cytotoxic, full curve, poor fit] | Potency [10]: inconclusive: 37.2 µM [cytotoxic, single point] | Potency [19]: inconclusive: 5.26 µM [cytotoxic, full curve, poor fit] | viability [14]: inactive: 105% | Potency [15]: inactive | Potency [16]: inconclusive: 0.0037 µM [rising, full curve, poor fit]

O=c1[nH]cnc2[nH]ncc12
Potency [1]: inactive | Potency [2]: inconclusive: 0.0118 µM [rising, full curve, poor fit] | Potency [3]: inconclusive: 0.0166 µM [rising, full curve] | Potency [5]: inconclusive: 0.0021 µM [rising, full curve] | Potency [12]: inconclusive: 0.0019 µM [rising, full curve, poor fit] | Potency [7]: inconclusive: 0.0015 µM [rising, full curve, poor fit] | Potency [8]: inactive | Potency [9]: inactive | Potency [10]: inconclusive: 0.0021 µM [rising, full curve] | Potency [19]: inconclusive: 1.32 µM [cytotoxic, full curve, poor fit] | Potency [14]: inconclusive: 0.332 µM [rising, full curve, poor fit] | Potency [15]: inactive | Potency [16]: inconclusive: 0.526 µM [cytotoxic, full curve, poor fit]

Cc1cnc(-c2cc(N3CCN(C(=O)CCS(C)(=O)=O)CC3)ncc2Cl)c(C)c1
Potency [1]: inconclusive: 16.6 µM [cytotoxic, partial curve, poor fit] | Potency [2]: inconclusive: 10.5 µM [cytotoxic, full curve, poor fit] | Potency [4]: inconclusive: 1.32 µM [cytotoxic, full curve, poor fit] | Potency [17]: inconclusive: 13.2 µM [cytotoxic, partial curve] | Potency [5]: inconclusive: 11.8 µM [rising, single point] | Potency [12]: inconclusive: 16.6 µM [cytotoxic, partial curve, poor fit] | Potency [7]: inconclusive: 20.9 µM [cytotoxic, single point] | Potency [8]: inactive | Potency [9]: inconclusive: 16.6 µM [cytotoxic, partial curve, poor fit] | Potency [19]: inconclusive: 29.6 µM [cytotoxic, single point] | viability [14]: inactive: 114%

Cn1cc(-c2ccc3ncc(Cc4ccc5ncccc5c4)n3n2)cn1
Potency [1]: inconclusive: 1.48 µM [cytotoxic, full curve, poor fit] | Potency [3]: inconclusive: 0.105 µM [rising, full curve, poor fit] | Potency [4]: inactive | Potency [17]: inactive | Potency [5]: inactive | Potency [12]: inactive | Potency [18]: inactive | Potency [7]: inconclusive: 14.8 µM [cytotoxic, partial curve, poor fit] | Potency [8]: inactive | Potency [9]: inconclusive: 0.0187 µM [cytotoxic, full curve, poor fit] | Potency [10]: inconclusive: 14.8 µM [cytotoxic, partial curve, poor fit] | Potency [14]: active: 2.09 µM | Potency [15]: inconclusive: 0.0296 µM [rising, full curve, poor fit] | Potency [16]: inconclusive: 16.6 µM [cytotoxic, partial curve] | Potency [11]: inconclusive: 23.5 µM [cytotoxic, partial curve]

NC(=NCc1ccccc1)NC(=O)c1nc(Cl)c(N)nc1N
Potency [1]: active: 7.43 µM | Potency [2]: inactive | Potency [3]: inconclusive: 0.0526 µM [rising, full curve] | Potency [4]: inconclusive: 5.26 µM [cytotoxic, partial curve, poor fit] | Potency [13]: inactive | Potency [18]: inconclusive: 0.0017 µM [rising, full curve, poor fit] | Potency [8]: inactive | Potency [10]: inactive | viability [14]: inactive: 140%

O=P(O)(O)C(O)(Cc1cccnc1)P(=O)(O)O
Potency [1]: inconclusive: 20.9 µM [cytotoxic, single point] | Potency [2]: active: 0.0017 µM | Potency [4]: inconclusive: 11.8 µM [rising, single point] | Potency [17]: inactive | Potency [5]: inactive | Potency [12]: inactive | Potency [6]: inconclusive: 3.72 µM [rising, partial curve, poor fit] | Potency [13]: inactive | Potency [18]: inactive | Potency [7]: inactive | Potency [8]: inconclusive: 0.0148 µM [rising, full curve, poor fit] | Potency [9]: inconclusive: 1.87 µM [rising, partial curve, poor fit] | Potency [10]: inactive | Potency [14]: inconclusive: 0.0526 µM [rising, full curve] | Potency [15]: inconclusive: 0.105 µM [rising, full curve, poor fit] | Potency [16]: inactive | Potency [11]: inactive
